Reference: PubChem BioAssay AID1508588 (Peter MacCallum Cancer Centre, 2020)

Test: 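Genome-wide search for knock-downs that heighten vemurafenib action in melanoma cells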 (primary screen)
Cells: human WM266.4 melanoma cells (BRAF V600 mutant)
Reagents: siRNA pool against human genes, 40 nM
Timing: 96 h from transfection to read-out
Challenge: vemurafenib 300 nM (about IC25), added 48 h after transfection, for 48 h; comparison arm got DMSO vehicle only
Measurement: 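Cell gain (DAPI nuclei at end minus before drug, mean of two replicates) and medium lactate by absorbance per cell, both as ratio to non-targeting siRNA, also grouped into fold-change classes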
Scale: cell gain with vemurafenib: higher = more cell gain than with non-targeting siRNA; lactate per cell with vemurafenib: higher = more lactate made per cell
Call rule: 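Enhancement is called by pairing each knock-down's vehicle-arm and drug-arm fold-change classes for viability or glycolysis; which class combinations qualify is not given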
Calls: active = enhances vemurafenib effect; inactive = no enhancement seen
This is an unselected part of about 18,000 reagents tested. 790 of them (4.4%) were called active. 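Calls rest on a combination of fold-change classes in drug and vehicle arms, not all shown here.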 Entries without a mark were called inactive. Reagent sequences are not shown.

gene knocked down | cell gain with vemurafenib | lactate per cell with vemurafenib
MAGEB3 (GeneID 4114) | 0.82 | 1.02
ESF1 (GeneID 51575) | 0.69 | 0.8
TRIM63 (GeneID 84676) | 1.11 | 0.73
SYN1 (GeneID 6853) | 0.88 | 0.62
SHCBP1L (GeneID 81626) | 0.76 | 1.1
SH3TC2 (GeneID 79628) | 0.15 | 2.17
TUBE1 (GeneID 51175) | 0.62 | 1.02
LLGL1 (GeneID 3996) | 0.9 | 0.76
GBA2 (GeneID 57704) | 0.47 | 1.38
POFUT1 (GeneID 23509) | 0.41 | 1.14
PGK2 (GeneID 5232) | 0.51 | 0.84
SLC35F3 (GeneID 148641) | 0.75 | 0.46
TTC31 (GeneID 64427) | 0.39 | 0.6
ZRANB3 (GeneID 84083) | 0.98 | 0.6
TM9SF4 (GeneID 9777) | 0.76 | 0.78
SLC22A13 (GeneID 9390) | 0.53 | 0.89
ZNF182 (GeneID 7569) | 1.13 | 0.68
ABITRAM (GeneID 54942) | 0.96 | 0.86
EIF2AK4 (GeneID 440275) | 0.91 | 1.18
KLC3 (GeneID 147700) | 0.72 | 0.9
PSD (GeneID 5662) | 0.77 | 1.08
NUBPL (GeneID 80224) | 0.55 | 1.28
GPAT3 (GeneID 84803) | 0.8 | 0.56
CRYBB3 (GeneID 1417) | 0.48 | 0.65
NPPC (GeneID 4880) | 0.73 | 0.68
PKMYT1 (GeneID 9088) | 0.41 | 1.62
RBPJ (GeneID 3516) | 0.28 | 1.83
INSIG1 (GeneID 3638) | 0.53 | 1.15
TP53AIP1 (GeneID 63970) | 0.57 | 0.98
IFNL2 (GeneID 282616) | 0.49 | 1.6
ERV3-1 (GeneID 2086) | 0.76 | 0.9
SLC1A5 (GeneID 6510) | 0.3 | 1.31
KIR2DS3 (GeneID 3808) | 0.94 | 1.08
NXT2 (GeneID 55916) | 0.59 | 1.37
ORC2 (GeneID 4999) | 0.26 | 1.38
TECTA (GeneID 7007) | 0.71 (active) | 0.57
ZNF280C (GeneID 55609) | 0.36 | 0.86
MMRN2 (GeneID 79812) | 0.71 | 0.72
SPINDOC (GeneID 144097) | 0.81 | 0.22
ZBTB16 (GeneID 7704) | 0.33 | 0.98
PAGR1 (GeneID 79447) | 0.04 | 1.78
ZNF236 (GeneID 7776) | 1.16 | 0.92
TMEM141 (GeneID 85014) | 0.04 | 0.8
MRNIP (GeneID 51149) | 0.45 | 1.32
TBATA (GeneID 219793) | 0.34 | 1.5
LPCAT4 (GeneID 254531) | 0.81 | 1.64
ADCY7 (GeneID 113) | 0.58 | 1.52
IL33 (GeneID 90865) | 0.25 | 1.36
LRRC31 (GeneID 79782) | 0.5 | 1.36
ZNF133 (GeneID 7692) | 0.69 | 0.9
CPPED1 (GeneID 55313) | 0.31 | 0.97
CCL25 (GeneID 6370) | 0.42 | 1.33
KIRREL1 (GeneID 55243) | 0.14 | 1.54
SLC2A4 (GeneID 6517) | 0.46 | 0.77
THY1 (GeneID 7070) | 0.36 | 1.55
WASF1 (GeneID 8936) | 0.67 | 0.26

An excerpt from above, limited to “cell gain with vemurafenib”.
TP53AIP1 (GeneID 63970)	0.57
IFNL2 (GeneID 282616)	0.49
ERV3-1 (GeneID 2086)	0.76
SLC1A5 (GeneID 6510)	0.3
KIR2DS3 (GeneID 3808)	0.94
NXT2 (GeneID 55916)	0.59
ORC2 (GeneID 4999)	0.26
TECTA (GeneID 7007)	0.71 (active)
ZNF280C (GeneID 55609)	0.36
MMRN2 (GeneID 79812)	0.71
SPINDOC (GeneID 144097)	0.81
ZBTB16 (GeneID 7704)	0.33
PAGR1 (GeneID 79447)	0.04

Additional entries follow:
gene knocked down | cell gain with vemurafenib | lactate per cell with vemurafenib
REEP2 (GeneID 51308) | 0.14 | 2.35
GALNT2 (GeneID 2590) | 0.35 (active) | 0.36
ATP9A (GeneID 10079) | 0.68 | 0.66
PCDHGB1 (GeneID 56104) | 0.78 | 1.03
CCSER1 (GeneID 401145) | 0.65 | 0.86
HJURP (GeneID 55355) | 0.35 | 1.38
RTP3 (GeneID 83597) | 0.53 | 0.66
LINC02913 (GeneID 414318) | 0.36 | 1.17
LILRB2 (GeneID 10288) | 1.03 | 0.84
CFL2 (GeneID 1073) | 0.62 | 0.53
PICK1 (GeneID 9463) | 0.53 | 1.28
ITPA (GeneID 3704) | 0.41 | 1.23
PLVAP (GeneID 83483) | 0.45 | 1.59
ACADM (GeneID 34) | 0.56 | 0.9
CDH7 (GeneID 1005) | 0.88 | 1.15
PJA2 (GeneID 9867) | 0.93 | 0.62
P2RY14 (GeneID 9934) | 0.77 | 0.97
SRPK2 (GeneID 6733) | 0.35 | 1.05
PPP2R2A (GeneID 5520) | 0.33 | 0.52
SASS6 (GeneID 163786) | 0.15 | 1.27
LRRC46 (GeneID 90506) | 0.59 | 0.34
WFDC1 (GeneID 58189) | 0.84 | 0.64
TTC29 (GeneID 83894) | 0.72 | 0.57
SCAND3 (GeneID 114821) | 0.92 | 0.82
UQCRQ (GeneID 27089) | 0.29 | 2.33
VCY (GeneID 9084) | 0.37 | 0.99
ZDHHC18 (GeneID 84243) | 0.39 | 0.95
KLHL4 (GeneID 56062) | 0.74 | 0.7
